Measured values reported in paper PMC10457402.
Results are given in words; binding and its absence hold for the method and conditions named. Binding seen in cells or lysates may run through a third protein. Some entries that bind do so weakly or less than the wild type.

By UniProt entry, the sequences of proteins in these tests, tags left out.
UniProt Q9BUL5: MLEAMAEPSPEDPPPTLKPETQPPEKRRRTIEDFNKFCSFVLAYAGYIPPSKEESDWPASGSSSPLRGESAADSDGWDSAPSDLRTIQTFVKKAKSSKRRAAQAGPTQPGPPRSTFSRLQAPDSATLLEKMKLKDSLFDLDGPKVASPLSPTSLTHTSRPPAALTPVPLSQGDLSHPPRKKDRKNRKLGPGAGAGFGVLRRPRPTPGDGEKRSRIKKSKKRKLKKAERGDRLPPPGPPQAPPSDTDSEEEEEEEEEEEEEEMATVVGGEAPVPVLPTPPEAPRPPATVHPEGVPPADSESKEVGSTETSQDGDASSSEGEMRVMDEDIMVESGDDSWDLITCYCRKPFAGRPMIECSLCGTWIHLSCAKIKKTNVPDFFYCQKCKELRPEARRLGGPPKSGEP
UniProt O43707: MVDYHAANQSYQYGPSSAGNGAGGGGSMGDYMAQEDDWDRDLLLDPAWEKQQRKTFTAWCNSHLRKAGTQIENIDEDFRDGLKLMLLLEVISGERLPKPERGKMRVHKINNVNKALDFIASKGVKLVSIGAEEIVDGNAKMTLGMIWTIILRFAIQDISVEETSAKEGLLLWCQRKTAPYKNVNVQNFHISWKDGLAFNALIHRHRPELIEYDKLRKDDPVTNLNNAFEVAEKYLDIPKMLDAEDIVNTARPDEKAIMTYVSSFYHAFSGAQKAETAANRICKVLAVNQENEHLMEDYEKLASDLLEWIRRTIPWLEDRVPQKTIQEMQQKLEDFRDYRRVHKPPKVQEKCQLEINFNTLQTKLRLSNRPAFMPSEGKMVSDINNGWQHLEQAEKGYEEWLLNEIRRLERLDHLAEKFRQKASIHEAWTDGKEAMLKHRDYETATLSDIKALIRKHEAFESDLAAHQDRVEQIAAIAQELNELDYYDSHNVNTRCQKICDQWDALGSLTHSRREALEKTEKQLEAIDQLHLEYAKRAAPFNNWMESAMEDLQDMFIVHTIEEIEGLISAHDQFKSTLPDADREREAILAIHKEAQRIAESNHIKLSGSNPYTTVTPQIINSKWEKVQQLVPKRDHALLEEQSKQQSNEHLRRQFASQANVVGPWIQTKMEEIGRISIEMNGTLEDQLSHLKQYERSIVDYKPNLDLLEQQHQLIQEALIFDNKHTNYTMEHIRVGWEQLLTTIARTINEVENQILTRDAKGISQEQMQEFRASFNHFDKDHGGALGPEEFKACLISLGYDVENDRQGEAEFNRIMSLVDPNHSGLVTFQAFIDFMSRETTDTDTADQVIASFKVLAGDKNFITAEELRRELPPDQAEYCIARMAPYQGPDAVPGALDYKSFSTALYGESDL
UniProt Q9H0F5: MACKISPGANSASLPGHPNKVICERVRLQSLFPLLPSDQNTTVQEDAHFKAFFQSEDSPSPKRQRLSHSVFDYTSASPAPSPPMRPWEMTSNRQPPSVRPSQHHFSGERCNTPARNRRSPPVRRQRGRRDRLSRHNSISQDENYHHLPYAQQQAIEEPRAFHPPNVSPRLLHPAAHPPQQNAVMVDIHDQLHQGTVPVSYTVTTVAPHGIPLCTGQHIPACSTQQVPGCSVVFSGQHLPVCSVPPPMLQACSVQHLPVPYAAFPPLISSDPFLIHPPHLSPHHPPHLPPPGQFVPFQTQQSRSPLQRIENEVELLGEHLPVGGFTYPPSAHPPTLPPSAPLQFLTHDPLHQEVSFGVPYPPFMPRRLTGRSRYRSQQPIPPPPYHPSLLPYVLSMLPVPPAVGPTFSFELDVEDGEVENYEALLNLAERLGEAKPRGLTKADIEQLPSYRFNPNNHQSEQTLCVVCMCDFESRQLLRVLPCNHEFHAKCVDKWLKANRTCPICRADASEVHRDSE

Assays:
[1] = target: Plant homologous structural domain finger protein 23 (PHF23) (human) (UniProt Q9BUL5); test: co-IP; A549 and H1299 cell lysates; target antibody (6 µg) or anti-rabbit IgG overnight at 4 °C, protein A/G beads, immunoblot
[2] = target: PHF23 expressed from the PHF23 cDNA plasmid (myc-tag) (human) (UniProt Q9BUL5); test: co-IP; A549 and H1299 cells transfected with PHF23 or PHF23-ΔPHD cDNA (myc-tag); immunoblot for ACTN4
[3] = target: Plant homologous structural domain finger protein 23 (PHF23) (human) (UniProt Q9BUL5); test: co-IP; A549 and H1299 cells after separation of nuclear and cytoplasmic proteins; co-immunoprecipitation from the fractions
[4] = target: Alpha-actinin-4 (ACTN4) (human (endogenous in H1299 and A549)) (UniProt O43707); test: co-IP; quantitative IP in A549 and H1299 cells with increasing PHF23 overexpression
[5] = target: Alpha-actinin-4 (ACTN4) (human (endogenous in H1299 and A549)) (UniProt O43707); test: co-IP; endogenous ACTN4 and RNF38 in NSCLC cells

Row | Substance | binding [1] | binding [2] | binding [3] | binding [4] | binding [5]
1 | Alpha-actinin-4 (ACTN4) (from UniProt O43707 1-911) | binds | binds | binds | – | –
2 | RING finger protein 38 (RNF38) (from UniProt Q9H0F5 1-515) | – | – | – | binds | binds
